# Laboratory results as given in patent US20200308287A1.
# Results are given in words; binding and its absence hold for the method and conditions named. Some results given as binding are weak or reduced against the parent protein; the word gives no strength.
# B1: R2M3 IgG (antibody, V domains shown, not shown: small tags and cut ends)
# VH: EVQLVQSGAEVKKPGASVKVSCKASGYTFTSYGISWVRQAPGQGLEWMGWISAYNGNTNYAQKLQGRVTMTTDTSTSTAYMELRSLRSDDTAVYYCASSKEKATYYYGMDVWGQGTTVTVSS
# VL: QAVVLQEPSLSVSPGGTVTLTCGLSSGSVSTNYYPSWYQQTPGQAPRTLIYYTNTRSSDVPERFSGSIVGNKAALTITGAQPDDESVYFCLLYLGRGIWVFGGGTKLTVLG
# Target: Fzd1 extracellular domain (ECD) (UniProt Q9UP38)
# Test: Octet interaction assay
binder,measurement,value
B1,binding,binds
